Reference: US8735425B2, “Tetrahydroisoquinoline derivative” (Daiichi Sankyo Company, Limited, priority 2008, dated 2014)
Some of these results come from one statement about several compounds together.

System: Male C57BL/6N mice
Experiment: Feeding suppressant activity (food intake on high-fat diet)
Format: in vivo
Settings: dose of 10 mg/kg or lower, orally administered, food intake 6 hours after initiation of feeding

| Compound | Feeding suppressant activity [%] |
| --- | --- |
| O=C(O)C[C@H]1CC[C@H](OC(=O)N2CCc3cc(NC(=O)Nc4ccccc4F)ccc3C2)CC1 [Example 2, trans-6-[3-(2-fluoro-phenyl)-ureido]-3,4-dihydro-1H-isoquinoline-2-carboxylic acid 4-carboxymethyl-cyclohexyl ester] | ≥ 25 |
| CCOc1cccc(NC(=O)Nc2ccc3c(c2)CCN(C(=O)O[C@H]2CC[C@H](CC(=O)O)CC2)C3)c1 [Example 20, trans-6-[3-(3-ethoxy-phenyl)-ureido]-3,4-dihydro-1H-isoquinoline-2-carboxylic acid 4-carboxymethyl-cyclohexyl ester] | ≥ 25 |
